{
  "sequences": {"note": "Chains of the proteins cited; added tags and fusions are not shown. Residues count along the entry.", "UniProt P05089, whole entry": "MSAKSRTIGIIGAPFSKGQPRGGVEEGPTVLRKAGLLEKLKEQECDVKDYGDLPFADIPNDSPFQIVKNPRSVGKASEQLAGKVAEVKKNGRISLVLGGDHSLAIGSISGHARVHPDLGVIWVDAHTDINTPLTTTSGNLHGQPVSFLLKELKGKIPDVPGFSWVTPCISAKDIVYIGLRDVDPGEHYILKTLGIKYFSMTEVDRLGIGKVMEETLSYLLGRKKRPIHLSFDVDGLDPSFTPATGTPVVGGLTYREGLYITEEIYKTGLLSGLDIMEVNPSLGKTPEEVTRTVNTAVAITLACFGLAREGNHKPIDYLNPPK", "UniProt P78540, 23-354 limits assumed": "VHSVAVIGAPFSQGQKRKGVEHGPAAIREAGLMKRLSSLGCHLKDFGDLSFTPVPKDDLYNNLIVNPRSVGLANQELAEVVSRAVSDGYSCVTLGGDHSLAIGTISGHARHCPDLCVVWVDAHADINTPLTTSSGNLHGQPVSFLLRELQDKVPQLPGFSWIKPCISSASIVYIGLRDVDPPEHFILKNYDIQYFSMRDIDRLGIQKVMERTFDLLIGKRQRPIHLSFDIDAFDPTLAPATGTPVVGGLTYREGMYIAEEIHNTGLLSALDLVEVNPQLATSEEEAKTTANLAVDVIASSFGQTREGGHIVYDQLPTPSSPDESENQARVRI"},
  "source": "patent US12053451B2",
  "about": "“Arginase inhibitors and their therapeutic applications” (OncoArendi Therapeutics S.A., priority 2016, dated 2024)",
  "key": {"[1]": {"target": "recombinant human arginase 1 (Homo sapiens, UniProt P05089)", "assay": "Human arginase activity assay (urea measurement), arginase 1", "format": "biochemical", "conditions": "read-out: Activity Class (ARG I); recombinant human arginase 1, pH 7.4, 37° C., 60 min; * = value for the most potent diastereoisomer or the mixture of diastereoisomers; tested form: HCl"}, "[2]": {"target": "recombinant human arginase 2 (Homo sapiens, UniProt P78540)", "assay": "Human arginase activity assay (urea measurement), arginase 2", "conditions": "read-out: Activity Class (ARG II), for selected examples class estimated from % of inhibition at 1 μM and 100 μM, * = most potent diastereoisomer or mixture of diastereoisomers, tested form: HCl"}},
  "note": "pIC50: −log10 of the molar value. The structures given here were assigned with low confidence; some may be wrong.",
  "data": [
    {"smiles": "NC1(C(=O)O)CC(CCB(O)O)CC1O", "note": "(centres unmarked)", "values": [
      {"measurement": "pIC50", "setting": "[1]", "value": "5.00 to 6.00"},
      {"measurement": "pIC50", "setting": "[2]", "value": "4.00 to 5.00"}
    ]}
  ]
}
